Binding data for three substances are collected here from doi:10.1101/2022.07.18.500530.

Amino acid sequences for entries named in this document (tags omitted).
UniProt F4K5J1: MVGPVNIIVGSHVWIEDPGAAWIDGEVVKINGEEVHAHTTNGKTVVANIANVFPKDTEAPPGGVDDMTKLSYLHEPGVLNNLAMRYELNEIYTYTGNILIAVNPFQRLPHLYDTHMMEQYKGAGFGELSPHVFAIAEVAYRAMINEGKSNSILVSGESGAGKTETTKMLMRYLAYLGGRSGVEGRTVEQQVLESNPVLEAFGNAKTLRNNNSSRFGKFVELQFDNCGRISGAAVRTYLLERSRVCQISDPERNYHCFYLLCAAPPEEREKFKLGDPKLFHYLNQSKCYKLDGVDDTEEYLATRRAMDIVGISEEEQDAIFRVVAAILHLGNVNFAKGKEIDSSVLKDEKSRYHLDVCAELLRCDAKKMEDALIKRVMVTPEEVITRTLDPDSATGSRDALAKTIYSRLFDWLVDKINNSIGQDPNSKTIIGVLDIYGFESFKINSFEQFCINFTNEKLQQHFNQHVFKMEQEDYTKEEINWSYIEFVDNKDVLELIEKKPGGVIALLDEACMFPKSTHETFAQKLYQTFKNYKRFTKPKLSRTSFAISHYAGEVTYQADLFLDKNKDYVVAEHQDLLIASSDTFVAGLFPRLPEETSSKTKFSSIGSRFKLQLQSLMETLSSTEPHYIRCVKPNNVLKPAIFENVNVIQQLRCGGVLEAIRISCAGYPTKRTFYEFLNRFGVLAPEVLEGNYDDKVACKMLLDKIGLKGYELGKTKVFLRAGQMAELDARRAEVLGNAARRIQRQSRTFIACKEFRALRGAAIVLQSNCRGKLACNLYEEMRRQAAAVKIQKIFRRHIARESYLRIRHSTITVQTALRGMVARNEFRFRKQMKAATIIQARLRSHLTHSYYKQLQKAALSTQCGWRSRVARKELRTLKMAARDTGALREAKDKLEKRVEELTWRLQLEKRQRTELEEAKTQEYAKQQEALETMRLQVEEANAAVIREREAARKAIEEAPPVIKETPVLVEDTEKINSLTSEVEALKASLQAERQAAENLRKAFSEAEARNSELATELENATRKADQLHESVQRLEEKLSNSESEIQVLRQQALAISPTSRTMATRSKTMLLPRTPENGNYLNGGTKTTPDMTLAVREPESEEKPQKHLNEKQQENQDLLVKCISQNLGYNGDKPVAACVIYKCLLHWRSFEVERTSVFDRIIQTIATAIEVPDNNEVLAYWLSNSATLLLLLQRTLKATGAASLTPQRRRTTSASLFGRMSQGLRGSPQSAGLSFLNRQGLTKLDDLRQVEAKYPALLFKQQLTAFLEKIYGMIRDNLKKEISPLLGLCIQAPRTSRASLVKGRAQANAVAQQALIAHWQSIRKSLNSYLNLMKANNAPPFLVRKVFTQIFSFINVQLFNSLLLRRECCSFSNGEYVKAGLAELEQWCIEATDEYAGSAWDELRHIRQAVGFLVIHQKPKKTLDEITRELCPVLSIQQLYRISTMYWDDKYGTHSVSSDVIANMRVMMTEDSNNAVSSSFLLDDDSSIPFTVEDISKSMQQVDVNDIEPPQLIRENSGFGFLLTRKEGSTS

Results are given in words; binding and its absence hold for the method and conditions named. For part of these data: Binding seen in cells or lysates may run through a third protein. Some results given as binding are weak or reduced against the parent protein; the word gives no strength. For part of these data: Tags and fused reporters may be left off the sequences shown.

In test [1] the target is T1, TWISTED DWARF1 (TWD1), purified protein (Arabidopsis) (UniProt Q9LDC0).
T1 sequence: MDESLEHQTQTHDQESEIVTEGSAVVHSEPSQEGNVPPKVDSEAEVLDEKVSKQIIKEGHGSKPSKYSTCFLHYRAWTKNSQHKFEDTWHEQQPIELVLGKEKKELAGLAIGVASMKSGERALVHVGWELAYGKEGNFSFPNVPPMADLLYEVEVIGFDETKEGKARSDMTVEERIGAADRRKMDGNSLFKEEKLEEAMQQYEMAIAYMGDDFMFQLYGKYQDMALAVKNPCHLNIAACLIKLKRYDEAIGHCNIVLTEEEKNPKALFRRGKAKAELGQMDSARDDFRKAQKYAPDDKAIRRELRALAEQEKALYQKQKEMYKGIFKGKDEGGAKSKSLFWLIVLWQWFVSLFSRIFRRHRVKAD
The experiment in a line: pull-down.

In test [2] the target is T2, TWD1 fused to Renilla luciferase (TWD1-Rluc) (Arabidopsis) (UniProt Q9LDC0).
T2 sequence: T1 sequence
The experiment in a line: FRET or BRET.

For the substance “Arabidopsis Actin2 (from UniProt Q96292 1-377)”, the binding result in test [1] was “no binding”.

Consider “Myosin XIK-YFP (from UniProt F4K5J1 1-1531)”, for which the binding result in test [2] is reported as “binds”.

For the substance “Arabidopsis Actin7 (from UniProt P53492 1-377)”, the binding result in test [1] was “no binding”.
